The values that follow come from PMC12036977.

Assay in all cases: co-IP; detergent-solubilized recombinant proteins with FLAG (ADIPOR1, KCNJ13) or 1D4 (MFRP) epitopes, produced in the mammalian system; anti-FLAG, anti-1D4 or normal IgG (ctrl) resins; immunoblotting
In test [1] the target is T1, Recombinant human MFRP-1D4 (human) (UniProt Q9BY79).
T1 sequence: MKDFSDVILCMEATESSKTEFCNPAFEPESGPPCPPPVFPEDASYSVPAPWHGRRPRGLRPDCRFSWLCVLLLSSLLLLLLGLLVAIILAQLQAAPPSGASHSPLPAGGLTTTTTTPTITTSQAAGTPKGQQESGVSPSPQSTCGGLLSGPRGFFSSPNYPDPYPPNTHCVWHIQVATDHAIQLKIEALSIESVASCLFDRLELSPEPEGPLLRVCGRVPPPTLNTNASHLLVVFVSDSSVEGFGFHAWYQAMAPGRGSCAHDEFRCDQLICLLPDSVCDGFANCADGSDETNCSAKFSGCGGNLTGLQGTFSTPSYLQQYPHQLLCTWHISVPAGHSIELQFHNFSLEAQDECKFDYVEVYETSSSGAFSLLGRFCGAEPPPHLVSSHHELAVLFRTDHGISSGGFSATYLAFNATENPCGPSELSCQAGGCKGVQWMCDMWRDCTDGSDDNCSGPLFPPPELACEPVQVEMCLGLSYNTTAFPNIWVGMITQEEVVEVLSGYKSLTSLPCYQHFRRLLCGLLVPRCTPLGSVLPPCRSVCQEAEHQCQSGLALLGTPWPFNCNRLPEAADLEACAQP

The target of the next test is T2, Recombinant KCNJ13-FLAG (UniProt O60928).
T2 sequence: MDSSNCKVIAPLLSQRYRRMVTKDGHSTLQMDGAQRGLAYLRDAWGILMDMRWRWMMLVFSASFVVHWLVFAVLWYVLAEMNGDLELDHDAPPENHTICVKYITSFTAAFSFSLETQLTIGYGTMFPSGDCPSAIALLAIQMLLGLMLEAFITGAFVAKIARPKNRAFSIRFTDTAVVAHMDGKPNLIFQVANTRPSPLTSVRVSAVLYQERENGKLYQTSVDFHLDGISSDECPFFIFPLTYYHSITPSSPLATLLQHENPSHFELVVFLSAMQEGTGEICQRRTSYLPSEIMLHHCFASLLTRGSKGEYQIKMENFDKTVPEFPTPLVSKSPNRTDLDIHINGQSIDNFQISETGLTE

The target of the next test is T3, Recombinant ADIPOR1-FLAG (UniProt Q96A54).
T3 sequence: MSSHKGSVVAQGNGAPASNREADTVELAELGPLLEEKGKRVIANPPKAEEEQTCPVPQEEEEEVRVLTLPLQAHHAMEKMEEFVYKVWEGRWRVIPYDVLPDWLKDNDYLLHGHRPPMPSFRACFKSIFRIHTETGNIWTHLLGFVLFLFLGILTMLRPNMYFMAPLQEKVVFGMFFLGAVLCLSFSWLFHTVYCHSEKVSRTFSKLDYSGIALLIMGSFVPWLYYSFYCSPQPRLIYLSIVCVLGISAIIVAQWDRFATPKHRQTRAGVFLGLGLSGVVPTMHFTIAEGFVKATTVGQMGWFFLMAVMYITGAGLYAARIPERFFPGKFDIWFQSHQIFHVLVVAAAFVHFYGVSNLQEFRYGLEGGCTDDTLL

These are yes or no findings as the source states them, for the method shown. Binding seen in cells or lysates may run through a third protein. Some binding calls cover weakened binding; strength is not graded here. Tags and fused reporters may be left off the sequences shown.

B1: Recombinant KCNJ13-FLAG (protein, UniProt O60928 1-360)
chain: T2 sequence
Regarding B1, the binding result in test [1] was “binds”.

B2: Recombinant human MFRP-1D4 (protein, UniProt Q9BY79 1-579)
chain: T1 sequence
As to B2, the binding result with Recombinant KCNJ13-FLAG and with Recombinant ADIPOR1-FLAG was “binds” in each case.

B3: Recombinant ADIPOR1-FLAG (receptor, UniProt Q96A54 1-375)
chain: T3 sequence
As for B3, in test [1], the binding result is listed as “binds”.
